{
  "sequences": {"note": "The chains behind the UniProt entries cited, without tags or fusion partners. Where a name states a change or a piece, a line headed by the entry shows the natural chain unless it says otherwise. Residues count along the entry.", "UniProt P63279": "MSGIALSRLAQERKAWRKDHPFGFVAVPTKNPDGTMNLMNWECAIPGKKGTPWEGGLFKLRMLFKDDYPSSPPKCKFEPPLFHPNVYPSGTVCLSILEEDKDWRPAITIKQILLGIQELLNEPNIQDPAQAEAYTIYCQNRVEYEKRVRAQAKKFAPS", "UniProt P45973": "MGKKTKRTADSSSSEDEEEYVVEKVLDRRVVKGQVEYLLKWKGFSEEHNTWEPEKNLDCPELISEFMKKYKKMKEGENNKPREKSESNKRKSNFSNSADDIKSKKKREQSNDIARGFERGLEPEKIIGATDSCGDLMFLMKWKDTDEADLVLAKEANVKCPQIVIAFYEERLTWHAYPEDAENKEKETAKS", "GST-HP1α-D1 (1–78)": "residues 1-78 of P45973", "GST-HP1α-D3 (122–191)": "residues 122-191 of P45973", "UniProt Q61686": "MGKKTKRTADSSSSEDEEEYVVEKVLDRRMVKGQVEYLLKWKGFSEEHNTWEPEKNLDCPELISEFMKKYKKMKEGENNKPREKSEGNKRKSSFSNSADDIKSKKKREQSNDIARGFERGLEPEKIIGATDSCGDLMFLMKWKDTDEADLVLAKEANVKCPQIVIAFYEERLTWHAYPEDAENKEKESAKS"},
  "source": "paper PMC11480336",
  "molecules": {"B1": {"name": "IRTKS in HEK293T cells (protein, UniProt Q9UHR4 1-511)", "chain": "MSRGPEEVNRLTESTYRNVMEQFNPGLRNLINLGKNYEKAVNAMILAGKAYYDGVAKIGEIATGSPVSTELGHVLIEISSTHKKLNESLDENFKKFHKEIIHELEKKIELDVKYMNATLKRYQTEHKNKLESLEKSQAELKKIRRKSQGSRNALKYEHKEIEYVETVTSRQSEIQKFIADGCKEALLEEKRRFCFLVDKHCGFANHIHYYHLQSAELLNSKLPRWQETCVDAIKVPEKIMNMIEEIKTPASTPVSGTPQASPMIERSNVVRKDYDTLSKCSPKMPPAPSGRAYTSPLIDMFNNPATAAPNSQRVNNSTGTSEDPSLQRSVSVATGLNMMKKQKVKTIFPHTAGSNKTLLSFAQGDVITLLIPEEKDGWLYGEHDVSKARGWFPSSYTKLLEENETEAVTVPTPSPTPVRSISTVNLSENSSVVIPPPDYLECLSMGAAADRRADSARTTSTFKAPASKPETAAPNDANGTAKPPFLSGENPFATVKLRPTVTNDRSAPIIR"}, "B2": {"name": "His-IRTKS (protein, UniProt Q9UHR4 1-511)", "chain": "B1 chain"}, "B3": {"name": "IRTKS in mouse embryonic fibroblasts (protein, UniProt Q9DBJ3 1-514)", "chain": "MSRGPEEVNRLTENTYRNVMEQFNPGLRNLINLGKNYEKAVNAMILAGKAYYDGVAKIGEIATGSPVSTELGHVLIEISSTHKKLNETLDENFKKFHKDIIHELEKKTELDVKYMNATLKRYQAEHRNKLDSLEKSQAELKKIRRKSQGGRNALKYEHKEIEYVETVTSRQSEIQKFIADGCKEALLEEKRRFCFLVDKHCSFASHIHYYHMQSAELLNSKLPRWQETCCDATKVPEKIMNMIEEIKTPISTPVSGTPQPSPMIERSKMIGKDYDTLSKYSPKMPPAPSVKAYTSPLIDMFNNPATAAQSSEKTNNSTANTGEDPSLQRSVSVATGLNMMKKQKVKTIFPHTAGNNKTLLSFAQGDVLTLLIPEEKDGWLYGEHDTTKARGWFPSSYTKLLEENEAMSVPTPSPAPVRSISTVDLTEKSSVVIPPPDYLECLSMGATSDKKAGAPKVPSASTFRAPVSRPDATSTSPSDANGTAKPPFLSGENPFATVKLRPTVTNDRSAPIIR"}},
  "key": {"[1]": {"target": "T1, IRTKS in HEK293T cells (human (endogenous in HEK293T)) (UniProt Q9UHR4)", "T1 sequence": "B1 chain", "assay": "co-IP; HEK293T lysate (50 mM Tris-HCl pH 7.5, 150 mM NaCl, 1 mM EDTA, 1 mM DTT, 1% Triton X-100), anti-IRTKS, anti-HP1α or anti-Ubc9 antibody, Protein A/G PLUS-Agarose, 4 °C, immunoblotting; IgG as negative control"}, "GST-IRTKS-D3 (403–511)": {"target": "T2, GST-IRTKS-D3 (403–511) (UniProt Q9UHR4)", "T2 sequence": "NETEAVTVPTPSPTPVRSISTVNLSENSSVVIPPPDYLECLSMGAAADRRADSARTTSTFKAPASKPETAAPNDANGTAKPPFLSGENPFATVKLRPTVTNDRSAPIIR", "assay": "pull-down; beads coated with GST fusion proteins incubated with His-tagged fusion proteins under rotation at 4 °C, washed with ice-cold PBS, eluted with 2× SDS loading buffer, western blotting; both purified"}, "GST-IRTKS-D2 (250–402)": {"target": "T3, GST-IRTKS-D2 (250–402) (UniProt Q9UHR4)", "T3 sequence": "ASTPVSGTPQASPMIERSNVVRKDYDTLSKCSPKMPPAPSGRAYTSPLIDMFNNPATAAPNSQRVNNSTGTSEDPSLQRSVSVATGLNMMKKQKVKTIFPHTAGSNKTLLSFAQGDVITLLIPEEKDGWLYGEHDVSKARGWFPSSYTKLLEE", "assay": "pull-down; beads coated with GST fusion proteins incubated with His-tagged fusion proteins under rotation at 4 °C, washed with ice-cold PBS, eluted with 2× SDS loading buffer, western blotting; both purified"}, "[2]": {"target": "T4, GST-IRTKS (insulin receptor tyrosine kinase substrate, full length) (UniProt Q9UHR4)", "T4 sequence": "B1 chain", "assay": "pull-down; beads coated with GST fusion proteins incubated with His-tagged fusion proteins under rotation at 4 °C, washed with ice-cold PBS, eluted with 2× SDS loading buffer, western blotting; both purified"}, "[3]": {"target": "T5, IRTKS in mouse embryonic fibroblasts (mouse (endogenous in MEFs)) (UniProt Q9DBJ3)", "T5 sequence": "B3 chain", "assay": "co-IP; MEF lysate (50 mM Tris-HCl pH 7.5, 150 mM NaCl, 1 mM EDTA, 1 mM DTT, 1% Triton X-100), anti-IRTKS or anti-HP1α antibody, Protein A/G PLUS-Agarose, 4 °C, immunoblotting; IgG as negative control"}, "[4]": {"target": "Ubc9 in HEK293T cells (human (endogenous in HEK293T)) (UniProt P63279)", "assay": "co-IP; HEK293T lysate (50 mM Tris-HCl pH 7.5, 150 mM NaCl, 1 mM EDTA, 1 mM DTT, 1% Triton X-100), anti-IRTKS, anti-HP1α or anti-Ubc9 antibody, Protein A/G PLUS-Agarose, 4 °C, immunoblotting; IgG as negative control"}, "[5]": {"target": "HP1α in HEK293T cells (human (endogenous in HEK293T)) (UniProt P45973)", "assay": "co-IP; HEK293T lysate (50 mM Tris-HCl pH 7.5, 150 mM NaCl, 1 mM EDTA, 1 mM DTT, 1% Triton X-100), anti-IRTKS, anti-HP1α or anti-Ubc9 antibody, Protein A/G PLUS-Agarose, 4 °C, immunoblotting; IgG as negative control"}, "GST-HP1α-D1 (1–78)": {"target": "GST-HP1α-D1 (1–78) (UniProt P45973)", "assay": "pull-down; beads coated with GST fusion proteins incubated with His-tagged fusion proteins under rotation at 4 °C, washed with ice-cold PBS, eluted with 2× SDS loading buffer, western blotting; both purified"}, "GST-HP1α-D3 (122–191)": {"target": "GST-HP1α-D3 (122–191) (UniProt P45973)", "assay": "pull-down; beads coated with GST fusion proteins incubated with His-tagged fusion proteins under rotation at 4 °C, washed with ice-cold PBS, eluted with 2× SDS loading buffer, western blotting; both purified"}, "[6]": {"target": "GST-HP1α (heterochromatin protein 1-alpha, full length) (UniProt P45973)", "assay": "pull-down; beads coated with GST fusion proteins incubated with His-tagged fusion proteins under rotation at 4 °C, washed with ice-cold PBS, eluted with 2× SDS loading buffer, western blotting; both purified"}, "[7]": {"target": "HP1α in mouse embryonic fibroblasts (mouse (endogenous in MEFs)) (UniProt Q61686)", "assay": "co-IP; MEF lysate (50 mM Tris-HCl pH 7.5, 150 mM NaCl, 1 mM EDTA, 1 mM DTT, 1% Triton X-100), anti-IRTKS or anti-HP1α antibody, Protein A/G PLUS-Agarose, 4 °C, immunoblotting; IgG as negative control"}},
  "note": "No constants are given. Whether binding was seen depends on the method and setting. For part of these data: In cells and extracts the contact can be indirect. Some results given as binding are weak or reduced against the parent protein; the word gives no strength. For part of these data: Where a sequence is shown, tags or fusion partners need not be part of it.",
  "data": [
    {"molecule": "HP1α in HEK293T cells (from UniProt P45973 1-191)", "values": [
      {"measurement": "binding", "setting": "[1]", "result": "binds"}
    ]},
    {"molecule": "His-HP1α (from UniProt P45973 1-191)", "values": [
      {"measurement": "binding", "setting": "GST-IRTKS-D3 (403–511)", "result": "binds"},
      {"measurement": "binding", "setting": "GST-IRTKS-D2 (250–402)", "result": "binds"},
      {"measurement": "binding", "setting": "[2]", "result": "binds"}
    ]},
    {"molecule": "HP1α in mouse embryonic fibroblasts (from UniProt Q61686 1-191)", "values": [
      {"measurement": "binding", "setting": "[3]", "result": "binds"}
    ]},
    {"molecule": "Ubc9 in HEK293T cells (from UniProt P63279 1-158) (enzyme)", "values": [
      {"measurement": "binding", "setting": "[1]", "result": "binds"}
    ]},
    {"molecule": "B1", "values": [
      {"measurement": "binding", "setting": "[4]", "result": "binds"},
      {"measurement": "binding", "setting": "[5]", "result": "binds"}
    ]},
    {"molecule": "B2", "values": [
      {"measurement": "binding", "setting": "GST-HP1α-D1 (1–78)", "result": "binds"},
      {"measurement": "binding", "setting": "GST-HP1α-D3 (122–191)", "result": "binds"},
      {"measurement": "binding", "setting": "[6]", "result": "binds"}
    ]},
    {"molecule": "B3", "values": [
      {"measurement": "binding", "setting": "[7]", "result": "binds"}
    ]}
  ]
}
